# Measurements as given in the supplement of paper PMC12819154, “High-throughput peptide-centric local stability assay extends protein–ligand identification to membrane proteins, tissues and bacteria” (Nature Structural & Molecular Biology, 2025).
# Chains of the proteins cited; added tags and fusions are not shown. Lines headed by an entry give the natural chain unless they say otherwise; changes in a name come on top.
# UniProt Q86VR2, whole entry: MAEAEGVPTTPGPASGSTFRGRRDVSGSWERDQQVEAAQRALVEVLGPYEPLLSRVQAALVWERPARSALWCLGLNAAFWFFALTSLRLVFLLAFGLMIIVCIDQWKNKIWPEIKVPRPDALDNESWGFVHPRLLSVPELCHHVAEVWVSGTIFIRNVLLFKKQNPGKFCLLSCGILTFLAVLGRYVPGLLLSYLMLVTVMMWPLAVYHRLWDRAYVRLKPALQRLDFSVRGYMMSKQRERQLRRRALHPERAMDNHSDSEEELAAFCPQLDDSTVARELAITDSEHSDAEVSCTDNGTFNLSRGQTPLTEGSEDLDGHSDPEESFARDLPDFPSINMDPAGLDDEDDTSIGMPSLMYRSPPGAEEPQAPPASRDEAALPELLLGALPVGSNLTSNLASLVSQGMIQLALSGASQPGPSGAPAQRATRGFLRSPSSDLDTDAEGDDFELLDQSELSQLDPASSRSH
# UniProt Q8IU81: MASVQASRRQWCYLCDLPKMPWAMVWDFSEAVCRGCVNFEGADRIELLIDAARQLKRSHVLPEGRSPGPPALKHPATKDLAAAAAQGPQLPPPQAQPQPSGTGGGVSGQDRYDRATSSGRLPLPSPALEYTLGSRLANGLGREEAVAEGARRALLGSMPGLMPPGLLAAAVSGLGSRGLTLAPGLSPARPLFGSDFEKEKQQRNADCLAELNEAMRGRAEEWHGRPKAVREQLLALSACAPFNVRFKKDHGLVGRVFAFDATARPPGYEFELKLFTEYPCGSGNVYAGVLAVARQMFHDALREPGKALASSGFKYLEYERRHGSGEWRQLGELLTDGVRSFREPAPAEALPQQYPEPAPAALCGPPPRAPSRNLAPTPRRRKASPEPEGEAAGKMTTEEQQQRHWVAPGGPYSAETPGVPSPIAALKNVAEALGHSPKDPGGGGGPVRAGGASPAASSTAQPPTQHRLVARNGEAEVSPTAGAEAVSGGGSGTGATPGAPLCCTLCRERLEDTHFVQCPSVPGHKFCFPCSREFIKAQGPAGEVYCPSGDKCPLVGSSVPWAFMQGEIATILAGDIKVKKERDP
# UniProt Q8IWD4: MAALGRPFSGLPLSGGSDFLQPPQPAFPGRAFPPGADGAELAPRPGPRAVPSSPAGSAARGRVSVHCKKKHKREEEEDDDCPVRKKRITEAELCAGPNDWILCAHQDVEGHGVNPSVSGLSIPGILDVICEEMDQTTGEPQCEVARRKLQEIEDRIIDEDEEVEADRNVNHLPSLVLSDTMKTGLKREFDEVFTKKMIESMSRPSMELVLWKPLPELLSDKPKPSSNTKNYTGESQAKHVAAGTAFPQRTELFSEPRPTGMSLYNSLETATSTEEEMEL
# UniProt Q8IWX8: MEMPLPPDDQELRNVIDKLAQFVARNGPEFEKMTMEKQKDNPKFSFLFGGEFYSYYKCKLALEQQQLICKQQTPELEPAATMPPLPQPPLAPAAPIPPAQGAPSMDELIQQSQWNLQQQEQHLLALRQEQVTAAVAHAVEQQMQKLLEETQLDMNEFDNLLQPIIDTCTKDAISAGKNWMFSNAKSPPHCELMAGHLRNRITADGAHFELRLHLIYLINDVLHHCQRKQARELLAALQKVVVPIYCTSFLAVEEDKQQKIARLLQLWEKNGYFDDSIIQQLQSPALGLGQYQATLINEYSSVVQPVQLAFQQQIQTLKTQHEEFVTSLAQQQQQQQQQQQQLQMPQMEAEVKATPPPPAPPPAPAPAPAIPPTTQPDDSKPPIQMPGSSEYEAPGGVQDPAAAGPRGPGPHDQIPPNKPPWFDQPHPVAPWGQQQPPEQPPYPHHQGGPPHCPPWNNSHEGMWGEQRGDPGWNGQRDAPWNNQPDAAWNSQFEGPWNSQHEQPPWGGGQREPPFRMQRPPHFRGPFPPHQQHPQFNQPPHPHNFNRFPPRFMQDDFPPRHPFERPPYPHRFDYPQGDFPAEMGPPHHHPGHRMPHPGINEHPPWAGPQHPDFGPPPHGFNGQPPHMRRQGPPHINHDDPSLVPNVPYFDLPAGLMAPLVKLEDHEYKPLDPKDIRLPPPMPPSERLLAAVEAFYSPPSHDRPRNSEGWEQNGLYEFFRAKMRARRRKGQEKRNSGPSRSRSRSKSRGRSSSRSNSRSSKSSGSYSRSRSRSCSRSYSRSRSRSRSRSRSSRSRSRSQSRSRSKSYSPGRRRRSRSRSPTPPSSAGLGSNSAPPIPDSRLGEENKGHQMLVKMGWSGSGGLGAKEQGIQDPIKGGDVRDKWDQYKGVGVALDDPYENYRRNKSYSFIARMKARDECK
# UniProt Q8IZX4, whole entry: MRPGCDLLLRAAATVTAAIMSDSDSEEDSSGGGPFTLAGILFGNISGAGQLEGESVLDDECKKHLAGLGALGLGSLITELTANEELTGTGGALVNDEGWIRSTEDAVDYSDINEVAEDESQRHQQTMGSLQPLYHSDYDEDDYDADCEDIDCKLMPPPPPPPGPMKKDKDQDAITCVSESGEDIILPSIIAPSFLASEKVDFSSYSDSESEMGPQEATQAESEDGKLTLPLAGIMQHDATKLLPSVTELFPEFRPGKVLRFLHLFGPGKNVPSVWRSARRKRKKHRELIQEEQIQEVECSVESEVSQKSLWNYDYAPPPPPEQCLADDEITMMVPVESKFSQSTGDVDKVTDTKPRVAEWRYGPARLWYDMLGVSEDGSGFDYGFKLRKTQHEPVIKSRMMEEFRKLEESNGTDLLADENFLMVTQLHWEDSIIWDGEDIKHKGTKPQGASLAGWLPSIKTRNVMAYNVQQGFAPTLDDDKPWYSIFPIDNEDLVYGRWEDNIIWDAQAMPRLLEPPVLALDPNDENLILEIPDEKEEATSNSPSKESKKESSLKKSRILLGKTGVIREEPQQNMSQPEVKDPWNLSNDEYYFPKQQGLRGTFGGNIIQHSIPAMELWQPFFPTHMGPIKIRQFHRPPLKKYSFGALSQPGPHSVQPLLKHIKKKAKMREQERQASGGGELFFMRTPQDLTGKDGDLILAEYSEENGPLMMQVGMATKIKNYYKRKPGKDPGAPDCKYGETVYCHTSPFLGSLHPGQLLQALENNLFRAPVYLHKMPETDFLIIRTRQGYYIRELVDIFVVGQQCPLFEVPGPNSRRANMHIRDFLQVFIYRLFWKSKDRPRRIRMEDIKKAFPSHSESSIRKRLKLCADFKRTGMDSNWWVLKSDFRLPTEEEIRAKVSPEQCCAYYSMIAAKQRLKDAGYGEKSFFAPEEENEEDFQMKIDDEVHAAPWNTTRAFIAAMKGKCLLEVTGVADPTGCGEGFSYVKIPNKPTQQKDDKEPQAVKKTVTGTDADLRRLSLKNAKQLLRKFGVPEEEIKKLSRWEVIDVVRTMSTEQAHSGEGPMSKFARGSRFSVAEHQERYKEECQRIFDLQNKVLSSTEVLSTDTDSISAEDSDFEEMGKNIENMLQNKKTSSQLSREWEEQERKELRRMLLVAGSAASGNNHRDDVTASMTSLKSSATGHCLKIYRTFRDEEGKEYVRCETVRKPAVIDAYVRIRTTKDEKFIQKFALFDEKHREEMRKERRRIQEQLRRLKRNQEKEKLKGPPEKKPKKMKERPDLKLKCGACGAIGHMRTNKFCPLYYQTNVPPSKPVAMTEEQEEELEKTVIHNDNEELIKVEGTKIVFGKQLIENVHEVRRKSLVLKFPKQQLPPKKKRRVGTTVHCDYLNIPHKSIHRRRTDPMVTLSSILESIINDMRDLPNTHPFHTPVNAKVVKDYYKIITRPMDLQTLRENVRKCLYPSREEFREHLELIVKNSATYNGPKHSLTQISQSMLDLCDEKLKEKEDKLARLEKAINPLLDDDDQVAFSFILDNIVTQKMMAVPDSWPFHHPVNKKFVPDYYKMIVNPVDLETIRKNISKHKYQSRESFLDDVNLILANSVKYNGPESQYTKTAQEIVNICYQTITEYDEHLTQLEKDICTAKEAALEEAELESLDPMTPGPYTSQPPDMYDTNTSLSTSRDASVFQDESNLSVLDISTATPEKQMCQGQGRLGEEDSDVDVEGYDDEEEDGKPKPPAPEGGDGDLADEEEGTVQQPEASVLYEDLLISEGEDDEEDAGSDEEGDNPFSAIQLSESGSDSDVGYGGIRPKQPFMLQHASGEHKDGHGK
# UniProt Q86VG3: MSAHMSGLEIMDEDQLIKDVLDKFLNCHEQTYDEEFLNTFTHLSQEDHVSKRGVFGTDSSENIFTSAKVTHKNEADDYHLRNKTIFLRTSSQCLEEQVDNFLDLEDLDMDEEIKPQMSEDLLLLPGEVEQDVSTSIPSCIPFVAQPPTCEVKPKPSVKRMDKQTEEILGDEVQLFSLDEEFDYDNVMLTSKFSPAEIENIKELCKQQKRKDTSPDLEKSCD
# UniProt Q86YV9: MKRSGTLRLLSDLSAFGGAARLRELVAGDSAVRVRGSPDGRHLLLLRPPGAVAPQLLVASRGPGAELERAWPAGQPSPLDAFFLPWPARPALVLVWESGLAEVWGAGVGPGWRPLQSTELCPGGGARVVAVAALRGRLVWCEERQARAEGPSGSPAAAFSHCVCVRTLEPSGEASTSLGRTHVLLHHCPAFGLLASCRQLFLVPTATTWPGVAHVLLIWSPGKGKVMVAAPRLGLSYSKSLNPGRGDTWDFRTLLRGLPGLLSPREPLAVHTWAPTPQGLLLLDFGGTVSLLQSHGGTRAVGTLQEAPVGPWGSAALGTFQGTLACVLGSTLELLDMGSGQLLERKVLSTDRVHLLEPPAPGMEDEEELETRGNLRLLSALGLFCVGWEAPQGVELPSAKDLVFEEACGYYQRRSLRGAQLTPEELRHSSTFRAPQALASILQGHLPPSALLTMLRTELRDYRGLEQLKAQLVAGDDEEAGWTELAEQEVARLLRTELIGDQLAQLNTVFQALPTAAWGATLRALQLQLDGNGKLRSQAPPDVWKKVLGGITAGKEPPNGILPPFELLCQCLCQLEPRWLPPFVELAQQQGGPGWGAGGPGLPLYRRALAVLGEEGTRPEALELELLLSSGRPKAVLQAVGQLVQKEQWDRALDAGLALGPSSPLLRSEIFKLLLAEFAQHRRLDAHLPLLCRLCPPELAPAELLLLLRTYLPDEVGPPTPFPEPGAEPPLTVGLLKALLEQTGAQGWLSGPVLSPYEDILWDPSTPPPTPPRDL
# UniProt Q8IXR5: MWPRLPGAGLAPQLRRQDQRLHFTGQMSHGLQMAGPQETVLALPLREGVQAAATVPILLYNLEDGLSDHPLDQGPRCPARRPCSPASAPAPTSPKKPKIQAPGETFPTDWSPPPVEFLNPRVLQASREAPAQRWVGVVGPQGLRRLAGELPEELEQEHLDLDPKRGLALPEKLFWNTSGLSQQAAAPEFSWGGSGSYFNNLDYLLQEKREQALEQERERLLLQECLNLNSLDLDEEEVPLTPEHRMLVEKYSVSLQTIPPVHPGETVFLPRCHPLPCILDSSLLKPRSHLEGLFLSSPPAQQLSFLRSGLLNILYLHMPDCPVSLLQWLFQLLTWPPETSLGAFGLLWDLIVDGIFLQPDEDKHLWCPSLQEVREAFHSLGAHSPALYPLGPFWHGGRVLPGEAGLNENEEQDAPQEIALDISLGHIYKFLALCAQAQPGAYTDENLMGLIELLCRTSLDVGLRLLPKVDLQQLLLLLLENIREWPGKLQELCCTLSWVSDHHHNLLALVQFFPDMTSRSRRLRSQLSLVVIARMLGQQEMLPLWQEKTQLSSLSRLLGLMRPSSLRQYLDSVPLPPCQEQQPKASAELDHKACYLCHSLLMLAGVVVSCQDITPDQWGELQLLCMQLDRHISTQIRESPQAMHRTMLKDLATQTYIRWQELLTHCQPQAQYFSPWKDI
# UniProt Q86V87: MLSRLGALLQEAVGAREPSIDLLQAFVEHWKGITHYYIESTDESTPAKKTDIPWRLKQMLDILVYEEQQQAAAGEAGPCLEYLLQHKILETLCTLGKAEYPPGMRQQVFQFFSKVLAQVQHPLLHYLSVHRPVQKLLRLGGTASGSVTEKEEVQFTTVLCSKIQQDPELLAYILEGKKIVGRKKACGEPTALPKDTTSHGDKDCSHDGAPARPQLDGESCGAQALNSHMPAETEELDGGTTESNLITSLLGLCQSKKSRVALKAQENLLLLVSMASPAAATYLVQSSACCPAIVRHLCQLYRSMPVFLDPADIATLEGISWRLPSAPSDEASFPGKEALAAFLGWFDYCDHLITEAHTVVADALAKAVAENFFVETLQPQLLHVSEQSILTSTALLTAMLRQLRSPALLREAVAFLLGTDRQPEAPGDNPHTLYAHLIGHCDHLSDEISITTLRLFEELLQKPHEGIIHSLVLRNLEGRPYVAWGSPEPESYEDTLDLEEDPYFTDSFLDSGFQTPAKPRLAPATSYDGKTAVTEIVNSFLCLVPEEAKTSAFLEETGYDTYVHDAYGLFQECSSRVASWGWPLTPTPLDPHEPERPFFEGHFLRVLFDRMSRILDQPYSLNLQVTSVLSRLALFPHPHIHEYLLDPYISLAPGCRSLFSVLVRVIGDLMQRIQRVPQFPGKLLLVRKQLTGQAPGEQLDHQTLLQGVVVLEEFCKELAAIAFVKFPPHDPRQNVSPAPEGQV
# Some of the results follow. Most values lie at the level of the controls, where differences are scatter.
# Compound: Cc1nc(Nc2ncc(C(=O)Nc3c(C)cccc3Cl)s2)cc(N2CCN(CCO)CC2)n1 [dasatinib]
# Test: log2 fold change of tryptic peptide abundance, ligand vs vehicle (limited proteolysis) (log2 ratio); higher = more trypsin-susceptible (destabilized)
# Settings: ligand concentration: 5 uM; sample: K562 cleared lysate
row,Target,log2 fold change
1,"UniProt Q86YW9 (peptide sequence: KKPQVNAK, peptide start residue: 92)",0.00586
2,"UniProt Q86VR2 (peptide sequence: VPRPDALDNESWGFVHPR, peptide start residue: 116)",-0.0657
3,"UEVLD (peptide sequence: ITEGVSDTNSK, peptide start residue: 162) (UniProt Q8IX04)",0.0762
4,"IRF2BP1 (peptide sequence: EEAVAEGAR, peptide start residue: 143) (UniProt Q8IU81)",-0.114
5,"CDAN1 (peptide sequence: LLASWVSGSSGR, peptide start residue: 808) (UniProt Q8IWY9)",0.52
6,"RDH10 (peptide sequence: QATNNNEAK, peptide start residue: 330) (UniProt Q8IZV5)",0.269
7,"CCDC117 (peptide sequence: TELFSEPR, peptide start residue: 250) (UniProt Q8IWD4)",-0.28
8,"UniProt Q8IW41 (peptide sequence: DLKPENLLFK, peptide start residue: 148)",0.545
9,"ALDH16A1 (peptide sequence: LLIQESVWDEAMRR, peptide start residue: 309) (UniProt Q8IZ83)",0.179
10,"EXOC8 (peptide sequence: AAAVHTAIR, peptide start residue: 436) (UniProt Q8IYI6)",0.475
11,"HIPK1 (peptide sequence: VHMYDTVSQIK, peptide start residue: 546) (UniProt Q86Z02)",-0.226
12,"RPS19BP1 (peptide sequence: GLELLAASEAPRDPPGQAK, peptide start residue: 9) (UniProt Q86WX3)",-0.989
13,"CHERP (peptide sequence: LPPPMPPSER, peptide start residue: 676) (UniProt Q8IWX8)",-0.23
14,"UniProt Q8IZX4 (peptide sequence: NIENMLQNK, peptide start residue: 1103)",-0.513
15,"ERICH1 (peptide sequence: LFPPVPSGQGK, peptide start residue: 17) (UniProt Q86X53)",0.298
16,"RPUSD2 (peptide sequence: TNEELLR, peptide start residue: 407) (UniProt Q8IZ73)",-0.149
17,"NCAPG2 (peptide sequence: CLPMILDNK, peptide start residue: 443) (UniProt Q86XI2)",0.262
18,"RBM12B (peptide sequence: RPLQGEWR, peptide start residue: 685) (UniProt Q8IXT5)",-0.636
19,"C11orf74 (peptide sequence: FSPAEIENIKELCK, peptide start residue: 192) (UniProt Q86VG3)",0.35

row,Target,log2 fold change
1,"ZNF280B (peptide sequence: TDILSLTSQNK, peptide start residue: 262) (UniProt Q86YH2)",-0.231
2,"DGKH (peptide sequence: EMEDWISSLK, peptide start residue: 145) (UniProt Q86XP1)",-0.297
3,"HPS6 (peptide sequence: GAQLTPEELR, peptide start residue: 418) (UniProt Q86YV9)",0.0594
4,"SCYL3 (peptide sequence: KDDVSPVMQFSSK, peptide start residue: 703) (UniProt Q8IZE3)",0.251
5,"RPTOR (peptide sequence: MFDKGPEQTADDADDAAGHK, peptide start residue: 929) (UniProt Q8N122)",-0.34
6,"RHOT2 (peptide sequence: SCFGHPLAPQALEDVK, peptide start residue: 215) (UniProt Q8IXI1)",0.19
7,"MYO18B (peptide sequence: DMLLSPTLRPR, peptide start residue: 2373) (UniProt Q8IUG5)",-0.583
8,"PACS2 (peptide sequence: TESLVIPSTR, peptide start residue: 414) (UniProt Q86VP3)",-0.301
9,"PNMA8A (peptide sequence: KPCVNKEELALK, peptide start residue: 293) (UniProt Q86V59)",-0.125
10,"FAM178B (peptide sequence: DLATQTYIR, peptide start residue: 650) (UniProt Q8IXR5)",-0.204
11,"TRMT2A (peptide sequence: HNKACCPLEGVRPSPQQTEYR, peptide start residue: 220) (UniProt Q8IZ69)",-0.34
12,"AMN1 (peptide sequence: EVLEQLVGPNK, peptide start residue: 239) (UniProt Q8IY45)",0.167
13,"ZC3H18 (peptide sequence: KEQEPDFEEKR, peptide start residue: 319) (UniProt Q86VM9)",-0.644
14,"C1orf174 (peptide sequence: CDKGHLVK, peptide start residue: 61) (UniProt Q8IYL3)",-0.806
15,"UNC5B (peptide sequence: ICNSLDAPNSR, peptide start residue: 866) (UniProt Q8IZJ1)",-0.05
16,"FAM160B2 (peptide sequence: LGALLQEAVGAR, peptide start residue: 5) (UniProt Q86V87)",0.0971
17,"UniProt Q8N0Z3 (peptide sequence: TNESLIQR, peptide start residue: 658)",-0.528
18,"UniProt Q86UY6 (peptide sequence: FGDSHHSHAGGHCGGCCH, peptide start residue: 220)",-0.364
19,"TICAM1 (peptide sequence: ADEHIALR, peptide start residue: 404) (UniProt Q8IUC6)",-0.287

# Reformatted with bars between the fields: part of the list above.
row | Target | log2 fold change
4 | IRF2BP1 (peptide sequence: EEAVAEGAR, peptide start residue: 143) (UniProt Q8IU81) | -0.114
5 | CDAN1 (peptide sequence: LLASWVSGSSGR, peptide start residue: 808) (UniProt Q8IWY9) | 0.52
6 | RDH10 (peptide sequence: QATNNNEAK, peptide start residue: 330) (UniProt Q8IZV5) | 0.269
